Source: paper PMC4409310
The exact form of at least one protein or probe is not confirmed.

Test system: His-NHR subunit of heterodimer + Trx-NHR subunit of heterodimer
Assay: EMSA
Conditions: 5 mM Mg2+, mixed-tag heterodimer; EMSA: 25 mM HEPES-KOH pH 8.0, 25 mM NH4Cl, 5 mM MgCl2, 5 mM DTT, 4 C, 1 h, 6-10 uM RNA; recombinant protein; protein details: N-terminal His6,N-terminal thioredoxin-His

GGAUGUUGGCUUAGAAGCAGCCAUCAUUU [29 nt RNA wt A1067]
binding result: binds
